For 54 sequences, binding signal results are on record in paper PMC7819943, “Rice protein-binding microarrays: a tool to detect cis-acting elements near promoter regions in rice”.

Chains of the proteins cited; added tags and fusions are not shown.
UniProt Q0JBA9, entry or part of it: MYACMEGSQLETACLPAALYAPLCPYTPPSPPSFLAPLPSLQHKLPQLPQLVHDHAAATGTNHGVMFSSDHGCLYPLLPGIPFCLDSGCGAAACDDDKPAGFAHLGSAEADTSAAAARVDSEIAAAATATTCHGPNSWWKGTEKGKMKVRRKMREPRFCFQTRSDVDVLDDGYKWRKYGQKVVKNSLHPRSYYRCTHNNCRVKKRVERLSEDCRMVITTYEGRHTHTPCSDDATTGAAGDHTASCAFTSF

Some of the results follow.

This experiment deals with OsWRKY34 (Oryza sativa, UniProt Q0JBA9 1-250). The experiment can be described thus: protein-binding microarray (RPBM); PBS, 2% BSA, 51.3 ng/ul salmon testes DNA, 50 uM zinc acetate, 200 nM TF, 25 C, 1 h; high values mean tight binding. The following applies: protein: recombinant; tags: N-terminal polyhistidine and DsRed monomer fusion (pET32a); label: CyDye5-dUTP incorporated in the synthesized complementary strand; 3' TTTTT single-stranded linker to array surface; dsDNA, one strand shown. The essentials: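 Per-feature fluorescence intensity (arbitrary units), read on an Axon 4000B scanner, is the binding signal. Transcription factors carrying an N-terminal polyhistidine tag and DsRed fusion were expressed in E. coli BL21-CodonPlus and purified on Ni–NTA. A custom Agilent array, made double-stranded by primer extension with Cy5-dUTP and blocked with 2% BSA, was incubated with 200 nM protein in PBS, 2% BSA, salmon testes DNA and 50 µM zinc acetate at 25 °C for 1 h and then washed.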
Turning to “GTTCCGTTTTCCGCGCGCACGCTTCCCAAACTATTAAATGCGGAGTCACCTAGTGCAG”, the binding signal is 11900 fluorescence intensity (a.u.).

As for “GTCTGTCTTCGTCACCCCTGCCGCTGCCGCTGCCGCTGCCCGGAGTCACCTAGTGCAG”, the binding signal is 8380 fluorescence intensity (a.u.).

“ATGGCTATTACCTGGTTGGACGAGTGCATTTATTGTTTATCGGAGTCACCTAGTGCAG”: the binding signal is 8390 fluorescence intensity (a.u.).

As for “GCCATTTTGCACCTTAATTAATTTTATGCTGTCTATTCTCCGGAGTCACCTAGTGCAG”, the binding signal was 11300 fluorescence intensity (a.u.).

In the case of “TGGCTATAAATACTTCCTCTCACCAATTGCCCACATAACTCGGAGTCACCTAGTGCAG”, the binding signal is 8070 fluorescence intensity (a.u.).

Consider “CACCAACCCATTTCCAGAAAATTCCTCTCACTGCGTCATGCGGAGTCACCTAGTGCAG”, for which the binding signal is 8280 fluorescence intensity (a.u.).

As for “ATCGTCCGTCAAGCTTCTCCTTGCCGCTCATTTGGCTTAGCGGAGTCACCTAGTGCAG”, the binding signal is 11000 fluorescence intensity (a.u.).

Turning to “CGTTTCTGCTCGCGCCTTCTTCTCGTTCTCATCATTTTTCCGGAGTCACCTAGTGCAG”, the binding signal is 10400 fluorescence intensity (a.u.).

In the case of “CCATTATCCATACGTTTTTCTCCACATCACTCGCCGGCCGCGGAGTCACCTAGTGCAG”, the binding signal was 11800 fluorescence intensity (a.u.).

On to “AGTGTGTTCTTTTCTCCTTTATTAACTCTACTTTTTCATCCGGAGTCACCTAGTGCAG”, for which the binding signal was 9390 fluorescence intensity (a.u.).

“AATCTGTGGCGATAACCTGTATGCTCACACACTTGCCTCTCGGAGTCACCTAGTGCAG”: the binding signal is 8610 fluorescence intensity (a.u.).

With “CGCCGTCGTTAGTCCTGCTGCTTCCGCCGCATCCATCCTGCGGAGTCACCTAGTGCAG”, the binding signal is 11100 fluorescence intensity (a.u.).

In the case of “CTTTTTTTTTCTTTCTTCATTTTCTTTTCCCATTGACTTCCGGAGTCACCTAGTGCAG”, the binding signal was 12300 fluorescence intensity (a.u.).

Consider “TAATGCCGTTTCGCGTTGCCACGCTCTCACTCTCTTTTGCCGGAGTCACCTAGTGCAG”, for which the binding signal was 12000 fluorescence intensity (a.u.).

Consider “ACCCTCCTGGCCTCCTCGGCGCCACCCGTTGCCCGCCGCGCGGAGTCACCTAGTGCAG”, for which the binding signal is 8270 fluorescence intensity (a.u.).

As to “CCTGGCTTGTTCATTCTGCTTGCCCTGCATTGCACAGTACCGGAGTCACCTAGTGCAG”, the binding signal was 9130 fluorescence intensity (a.u.).

Regarding “TTTTTTTTTCCTGGTTTACCGCTTGAGATTGTTTTCTTCACGGAGTCACCTAGTGCAG”, the binding signal was 8180 fluorescence intensity (a.u.).

Turning to “CTGCCTGCGCTGCGTTCTCCTTGTGCTTGTGTGCGTGTGACGGAGTCACCTAGTGCAG”, the binding signal was 13900 fluorescence intensity (a.u.).

In the case of “TACTTTCTTCGTCCTCGCCTCGTCGCGTCGCTCTGTCTTCCGGAGTCACCTAGTGCAG”, the binding signal was 13400 fluorescence intensity (a.u.).

Consider “GTCTAATAAGTTCATTCTTGACATCTCCCATTTATCTCAACGGAGTCACCTAGTGCAG”, for which the binding signal was 8590 fluorescence intensity (a.u.).

“CCTCATTTTCTTGTGAAATTTTTGGTATTGCATGATGCTACGGAGTCACCTAGTGCAG”: the binding signal was 8640 fluorescence intensity (a.u.).

For “CTTTTCGCCATTCAAGGAATTACCTCGTGGGCTATATGTACGGAGTCACCTAGTGCAG”, the binding signal is 8580 fluorescence intensity (a.u.).

Regarding “CTTGTTTTTCTCATTAGTCTATATTTAATACTTAAAATATCGGAGTCACCTAGTGCAG”, the binding signal is 8440 fluorescence intensity (a.u.).

Turning to “CATCTATCAAAGGTACATATATTTTCACTTTTTCAGACTACGGAGTCACCTAGTGCAG”, the binding signal is 8200 fluorescence intensity (a.u.).

Turning to “TTGAAGGAACCCTATAGTTTTCACTTCAACATCATATTACCGGAGTCACCTAGTGCAG”, the binding signal is 8050 fluorescence intensity (a.u.).

For the sequence “TATTGGGCTTGAGGTTTTGTGGCCCGTAAAGGGAGGGGTGCGGAGTCACCTAGTGCAG”, the binding signal is 8110 fluorescence intensity (a.u.).

Consider “AGCTCCTTATTCGTCGCATAATTTTTCACGATCTCGCAGACGGAGTCACCTAGTGCAG”, for which the binding signal is 11400 fluorescence intensity (a.u.).

Turning to “ATGGCTTCTCTCTCTGCTGTGTGTTCAGGGGTCGGGGATCCGGAGTCACCTAGTGCAG”, the binding signal was 15900 fluorescence intensity (a.u.).

For the sequence “TACTGCCACACTTCGTCAGGAACCAGCACCGCCTCCTCGACGGAGTCACCTAGTGCAG”, the binding signal was 8110 fluorescence intensity (a.u.).

“CAGGCACCCTCTCGCACTCTCCACCGATCCACCAACACCACGGAGTCACCTAGTGCAG”: the binding signal was 8830 fluorescence intensity (a.u.).

“CCATCGCCGTCCAGTTAGTCTCCGTTAGTACTGTACAAATCGGAGTCACCTAGTGCAG”: the binding signal is 10000 fluorescence intensity (a.u.).

With “TGCTGTCTATGCTCTGCATTTTTTTATTTCCATTTAAGGTCGGAGTCACCTAGTGCAG”, the binding signal is 11700 fluorescence intensity (a.u.).

Regarding “CGCCGTCGTCGCGCCCCGCGCCGCCCTCAATTGCCGACGACGGAGTCACCTAGTGCAG”, the binding signal is 9170 fluorescence intensity (a.u.).

For the sequence “ACTCGCTCACTCTCTCACTCTCACTGCCTCACCAACCAGTCGGAGTCACCTAGTGCAG”, the binding signal was 9800 fluorescence intensity (a.u.).

Consider “GCCCTGTGCTTTGCTCGCTCGCTGCTTTTCTCTTTCTTAACGGAGTCACCTAGTGCAG”, for which the binding signal is 10700 fluorescence intensity (a.u.).

Consider “GGGTGCTTTCTTTTCCAGTTACCTCCCACCTTAGGAACCCCGGAGTCACCTAGTGCAG”, for which the binding signal is 8060 fluorescence intensity (a.u.).

On to “TGCTCGTGCCCCTCCGCCCATCACACTGATCCGCACCGGACGGAGTCACCTAGTGCAG”, for which the binding signal is 9480 fluorescence intensity (a.u.).

As for “CTGCAGATTCATTGTTACTAGTCTTAGTCATACTTGTTACCGGAGTCACCTAGTGCAG”, the binding signal is 10900 fluorescence intensity (a.u.).

Consider “GCGTCCAGTCTGGAAGGACGAGGGTGGGCCAATTAGTTGCCGGAGTCACCTAGTGCAG”, for which the binding signal is 10300 fluorescence intensity (a.u.).

For “GGTTGGATAGCGCTTGTGGTGTGGGCAGGGTTTACACAGACGGAGTCACCTAGTGCAG”, the binding signal is 12500 fluorescence intensity (a.u.).

“GCTCATCTCTCCGCGTGCTTCTTCTTCTTCTCTCTCTAAACGGAGTCACCTAGTGCAG”: the binding signal is 13000 fluorescence intensity (a.u.).

For “CCTTAATTCCATCTCCTCTCCGTTTTCTTGATTAAATCCTCGGAGTCACCTAGTGCAG”, the binding signal is 8430 fluorescence intensity (a.u.).

In the case of “TCGAACCCGCTCCAAGTCCTGTACCTCGCCGTACGTCAGCCGGAGTCACCTAGTGCAG”, the binding signal was 9350 fluorescence intensity (a.u.).

“GCCTCTGTCTCCGCCGGTGCCGCGACGGCGTTGGCCAACCCGGAGTCACCTAGTGCAG”: the binding signal was 8780 fluorescence intensity (a.u.).

“CATTACTGTTTGCGGTTTCAGACTCTTACCAAACACCACCCGGAGTCACCTAGTGCAG”: the binding signal is 8720 fluorescence intensity (a.u.).

As for “ATTATTGTTGTACAGTTCTTGCCTACAGTTCGGTTTTTCTCGGAGTCACCTAGTGCAG”, the binding signal is 19700 fluorescence intensity (a.u.).

With “ACGCGCGCCGCAACCTCCTCCGCTCGCTCTGCAACCTCGCCGGAGTCACCTAGTGCAG”, the binding signal is 9700 fluorescence intensity (a.u.).

Regarding “GCCGCCGTCTCGCGCCGCCACCTCCGCCTCGCGCCGCCACCGGAGTCACCTAGTGCAG”, the binding signal was 9720 fluorescence intensity (a.u.).

Consider “CCAGGTGGCGGCTAGGGTTAGGGTTTTAGGGTGAACTCACCGGAGTCACCTAGTGCAG”, for which the binding signal was 8690 fluorescence intensity (a.u.).

Take “TTTCTTTTCTCGGTGTCCGGTGTCCCTTGGTGTGTTGCTACGGAGTCACCTAGTGCAG”: the binding signal is 10400 fluorescence intensity (a.u.).

On to “CCGCATATACTCTCTCTCTCTCTCTCTCTCTGCTTCTGGACGGAGTCACCTAGTGCAG”, for which the binding signal is 10500 fluorescence intensity (a.u.).

For the sequence “CCACCACTCACCTCACTCACGTGACGACTCGTCCAACCCACGGAGTCACCTAGTGCAG”, the binding signal is 10900 fluorescence intensity (a.u.).

For the sequence “TTATGAAGTCGGCCAGTTGTTGTCGTATATAACCGAAAATCGGAGTCACCTAGTGCAG”, the binding signal was 8820 fluorescence intensity (a.u.).

As for “TGTATTTCTATTGGACTCTCCTTTTCTTTTTTTTCTTTTTCGGAGTCACCTAGTGCAG”, the binding signal was 9580 fluorescence intensity (a.u.).
